# Publication PMC7862700
# The entries are a selection whose mix differs from that of the whole data set. At the low end of the ranking the order means little.
# Target: SPI1 (UniProt P17947)
# Experiment: DAPPL (digital affinity profiling via proximity ligation, sequencing)
# Conditions: 10 mM Tris-HCl pH 7.5, 50 mM NaCl, 1 mM DTT, 4% glycerol, room temperature, 30 min; GST-TFs on glutathione beads, 16-mer random dsDNA library, 0.1% …; high values mean tight binding; double strand, one strand shown; scale: fold enrichment (6-mer frequency, TF over GST control)
row,Sequence,binding signal
1,GGCCAT,0.922
2,CAGCGG,0.411
3,GGCGTA,0.656
4,GGGTTG,0.803
5,GCATCA,0.74
6,ACAGGT,0.741
7,GAGCGG,0.545
8,GCGCTA,0.854
9,AACGAG,0.804
10,AGTAGA,0.844
11,GCGAGT,0.547
12,AGCCAT,0.86
13,CGGGTG,0.648
14,GTCAAG,0.786
15,AGATAG,0.793
16,GACTGT,0.413
17,GAGCCG,0.404
18,GAGTTC,0.765
19,ACCATG,0.864
20,GGGCCA,0.658

# Copied from the results shown (two entries):
row,Sequence,binding signal
4,GGGTTG,0.803
5,GCATCA,0.74

# Carrying on:

row,Sequence,binding signal
1,GGGGAT,0.666
2,GAACCG,0.768
3,GCGCGG,0.835
4,CATCGG,0.675
5,CGGTAG,0.614
6,GGGCCG,0.627
7,GTGACA,0.803
8,GGGGCA,0.649
9,AGTCTA,0.834
10,CATGAG,0.615
11,CCAGCG,0.632
12,GAGTAG,0.494
13,TTGGAC,0.964
14,GCATAG,0.816
15,CCAGGA,0.616
16,TCGGCC,0.733
17,CTAGTC,0.777
18,GTAACG,0.958
19,ACAGTC,0.434
20,GGTGGC,0.718
